Here are results for one sequence from paper PMC5996148.

Where “and” joins values, the source holds several entries; their conditions need not be identical. Equal values may be shown once. Some of the results follow. For some of these results: Construct or isoform of the protein are uncertain.

Experiment in all cases: protein microarray (ProtoArray v5.0), streptavidin-Alexa Fluor 647
Common to all, as to conditions: 3'-biotin; 20 mM Tris (pH 7.5), 5 mM MgCl2, 100 mM KCl, 0.1% Tween-20, A/T-rich and random oligonucleotide blockers; temperature not stated; high values mean tight binding

One test deals with T1, BATF2 (UniProt Q8N1L9).
T1 sequence: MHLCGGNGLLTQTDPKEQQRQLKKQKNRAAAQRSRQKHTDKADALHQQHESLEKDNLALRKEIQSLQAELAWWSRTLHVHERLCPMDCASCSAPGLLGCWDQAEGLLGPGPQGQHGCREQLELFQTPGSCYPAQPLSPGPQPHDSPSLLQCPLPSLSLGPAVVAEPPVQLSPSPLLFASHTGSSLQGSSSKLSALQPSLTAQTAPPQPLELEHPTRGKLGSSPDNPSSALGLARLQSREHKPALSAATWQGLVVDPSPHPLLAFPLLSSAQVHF

A further test relates to BBS2 (human).
The subject of another test is BBS7 (human).
The test system of a further test is BCAR3 (human).
For a further test, the target named is BCKDK (UniProt O14874).
The subject of another test is BCL2A1 (human).
A further test concerns BCL2L11 (human).
The next test concerns BCL2L13 (human).
In the next test the test system is BHMT2 (human).
The next test relates to BID (human).

“GGGGACAGGGGTATGGGGAGGGG [G4-3 biotinylated (CtG)]”: the binding signal in the test with BATF2 is -0.332 z-score; with BBS2 (human), -0.319 z-score; in the test on BBS7 (human), -0.327 z-score; with BCAR3 (human), -0.333 z-score; in the test with BCKDK, -0.308 z-score; in the test with BCL2A1 (human) it was -0.325 z-score. The binding signal was -0.349 z-score in the test on BCL2L11 (human); -0.338 z-score with BCL2L13 (human); -0.321 z-score with BHMT2 (human); -0.335 z-score and -0.314 z-score with BID (human).
